Holding throughout (assay): cross-linking; diamide-induced covalent (disulfide/selenenylsulfide) complex: TrxR1 or a TrxR1 mutant with a 2-fold concentration of hTrx1, or one protein alone, 10 mM diamide, 30 min at room temperature; non-reducing SDS-PAGE, Coomassie stain; both purified
Assay [1] addresses single Sec498Ser mutant of TrxR1.
For assay [2], the target named is double Cys296Ser/Sec498Cys mutant of TrxR1 (UniProt O89049).
The target of assay [3] is double Cys189Ser/Sec498Cys mutant of TrxR1 (UniProt O89049).
Assay [4] has as its target single Sec498Cys mutant of TrxR1.
Assay [5] deals with double Cys497Ser/Sec498Ser mutant of TrxR1 (UniProt O89049).
Assay [6] concerns the target double Cys458Ser/Sec498Cys mutant of TrxR1 (UniProt O89049).

No constants are given. Whether binding was seen depends on the method and setting. For part of these data: A result given as binding can be weak or reduced; the word gives no strength.

B1: human cytosolic thioredoxin (hTrx1) (natural protein, UniProt P10599 1-105, looked up)
chain: MVKQIESKTAFQEALDAAGDKLVVVDFSATWCGPCKMIKPFFHSLSEKYSNVIFLEVDVDDCQDVASECEVKCMPTFQFFKKGQKVGEFSGANKEKLEATINELV
notes: Human cytosolic thioredoxin (hTrx1); freshly DTT-treated, free thiol on surface Cys73; also called human cytosolic Trx; source: purified according to a previously described method (Zhai and Zhong, 2010); incubated with DTT and dialysed before use
For the molecule B1, the binding result was “binds” in assay [1]; “binds” in assay [2]; “binds” in assay [3]; “binds” in assay [4]; “no binding” in assay [5]; “binds” in assay [6].

Values taken from publication PMC10957665, “The C-terminal selenenylsulfide of extracellular/non-reduced thioredoxin reductase endows this protein with selectivity to small-molecule electrophilic reagents under oxidative conditions” (Frontiers in Molecular Biosciences, 2024).
